The list shows a part of the results.
Key:
Test in all cases: log2 fold change, soluble protein after heating vs DMSO (PISA); higher = thermal stabilisation; K562 lysate, 10 uM; active = over 0.2 and 3.5 SD of the protein, either way, in both replicates (recomputed)
[1] = compound: C1=CC=C(C=C1)[C@H](COC2=CC3=C(C=C2)NC(=O)N3)NC(=O)C4=CC=CN(C4=O)CC5=CC(=C(C=C5)F)F
Procedure, shortened: (§1)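 The values are log-two fold changes in thermal stability compared with solvent controls and come from duplicates. They were obtained by TMTpro 16plex LC-MS/MS, with channel sums equalised, on the supernatant after 21,000xg for 90 min. That supernatant came from crude K562 extract at 1 mg/mL protein treated with 10 μM compound for 30 min, heated for 3 min across 48°C-58°C, pooled and brought to 0.5% NP-40 at 4°C.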

The chains behind the UniProt entries cited, without tags or fusion partners. Where a name states a change or a piece, a line headed by the entry shows the natural chain unless it says otherwise.
UniProt Q9NWZ8: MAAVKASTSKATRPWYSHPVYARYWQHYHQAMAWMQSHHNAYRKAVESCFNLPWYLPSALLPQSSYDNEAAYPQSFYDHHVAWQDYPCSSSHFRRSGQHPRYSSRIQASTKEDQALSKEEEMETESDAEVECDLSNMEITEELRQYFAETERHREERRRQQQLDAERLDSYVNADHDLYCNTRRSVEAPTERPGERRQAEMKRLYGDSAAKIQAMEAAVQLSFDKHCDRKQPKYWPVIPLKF
UniProt Q13283, whole entry, looked up: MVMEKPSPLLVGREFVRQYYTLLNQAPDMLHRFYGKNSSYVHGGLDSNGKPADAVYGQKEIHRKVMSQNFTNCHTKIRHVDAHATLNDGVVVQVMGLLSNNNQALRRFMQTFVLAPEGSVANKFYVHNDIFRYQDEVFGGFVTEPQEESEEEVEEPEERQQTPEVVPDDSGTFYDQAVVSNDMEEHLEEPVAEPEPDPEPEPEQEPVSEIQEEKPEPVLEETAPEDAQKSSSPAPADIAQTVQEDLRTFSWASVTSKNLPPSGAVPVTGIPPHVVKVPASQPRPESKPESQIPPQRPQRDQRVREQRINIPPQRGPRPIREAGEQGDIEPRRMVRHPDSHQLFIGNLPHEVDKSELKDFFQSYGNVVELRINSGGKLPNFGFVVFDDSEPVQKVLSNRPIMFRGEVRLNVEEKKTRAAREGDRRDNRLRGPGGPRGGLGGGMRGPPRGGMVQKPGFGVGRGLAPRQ
UniProt P58012: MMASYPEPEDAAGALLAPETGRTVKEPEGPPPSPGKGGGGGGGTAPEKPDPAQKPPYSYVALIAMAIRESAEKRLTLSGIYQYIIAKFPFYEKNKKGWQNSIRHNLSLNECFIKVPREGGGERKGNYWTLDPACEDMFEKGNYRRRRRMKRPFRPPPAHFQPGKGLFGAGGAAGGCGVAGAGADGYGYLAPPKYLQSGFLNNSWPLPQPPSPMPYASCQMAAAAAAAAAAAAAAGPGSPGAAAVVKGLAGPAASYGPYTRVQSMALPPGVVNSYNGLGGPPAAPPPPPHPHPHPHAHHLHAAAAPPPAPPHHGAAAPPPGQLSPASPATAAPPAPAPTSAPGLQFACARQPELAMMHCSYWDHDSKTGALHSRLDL
UniProt P51570: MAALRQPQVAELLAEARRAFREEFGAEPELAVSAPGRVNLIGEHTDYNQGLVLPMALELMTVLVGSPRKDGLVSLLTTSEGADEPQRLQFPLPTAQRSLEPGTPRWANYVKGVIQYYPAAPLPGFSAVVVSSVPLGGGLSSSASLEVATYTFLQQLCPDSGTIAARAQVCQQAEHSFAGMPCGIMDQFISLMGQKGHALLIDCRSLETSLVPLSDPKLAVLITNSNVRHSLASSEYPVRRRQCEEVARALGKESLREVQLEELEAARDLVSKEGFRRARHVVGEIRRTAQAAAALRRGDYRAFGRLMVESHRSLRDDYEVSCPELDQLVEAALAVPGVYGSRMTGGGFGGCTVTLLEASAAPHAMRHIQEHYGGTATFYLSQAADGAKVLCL
UniProt O95166, whole entry, looked up: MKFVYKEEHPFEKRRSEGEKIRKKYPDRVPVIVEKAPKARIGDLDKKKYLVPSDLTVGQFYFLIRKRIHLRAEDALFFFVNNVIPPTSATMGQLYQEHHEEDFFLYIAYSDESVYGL
UniProt P22102: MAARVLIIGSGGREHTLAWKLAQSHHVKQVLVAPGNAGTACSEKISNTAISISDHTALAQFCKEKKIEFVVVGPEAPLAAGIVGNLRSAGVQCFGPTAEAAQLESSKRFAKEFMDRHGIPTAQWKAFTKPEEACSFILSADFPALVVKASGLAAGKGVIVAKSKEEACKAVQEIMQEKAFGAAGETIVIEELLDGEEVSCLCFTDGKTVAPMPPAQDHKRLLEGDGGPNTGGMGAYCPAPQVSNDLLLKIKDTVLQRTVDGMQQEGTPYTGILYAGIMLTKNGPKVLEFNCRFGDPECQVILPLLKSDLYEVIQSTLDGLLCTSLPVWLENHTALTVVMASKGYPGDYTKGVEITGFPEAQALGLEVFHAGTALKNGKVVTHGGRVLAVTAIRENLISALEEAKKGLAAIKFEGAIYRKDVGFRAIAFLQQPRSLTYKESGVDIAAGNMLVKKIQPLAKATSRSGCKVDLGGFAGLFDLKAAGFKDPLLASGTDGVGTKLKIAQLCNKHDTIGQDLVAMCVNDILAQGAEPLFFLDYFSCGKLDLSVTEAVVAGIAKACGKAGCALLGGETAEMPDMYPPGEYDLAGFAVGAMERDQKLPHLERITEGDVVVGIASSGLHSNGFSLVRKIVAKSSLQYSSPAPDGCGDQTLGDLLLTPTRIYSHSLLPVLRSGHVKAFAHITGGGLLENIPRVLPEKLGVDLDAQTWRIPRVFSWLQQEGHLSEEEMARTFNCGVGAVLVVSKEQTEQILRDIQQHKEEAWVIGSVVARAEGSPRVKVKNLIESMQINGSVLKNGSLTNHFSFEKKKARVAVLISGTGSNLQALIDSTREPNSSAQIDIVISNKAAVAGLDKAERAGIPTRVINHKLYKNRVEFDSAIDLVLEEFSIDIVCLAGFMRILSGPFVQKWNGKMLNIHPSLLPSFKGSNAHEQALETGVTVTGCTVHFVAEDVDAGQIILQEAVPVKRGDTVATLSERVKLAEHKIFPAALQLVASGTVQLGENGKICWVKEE
UniProt Q96CU9: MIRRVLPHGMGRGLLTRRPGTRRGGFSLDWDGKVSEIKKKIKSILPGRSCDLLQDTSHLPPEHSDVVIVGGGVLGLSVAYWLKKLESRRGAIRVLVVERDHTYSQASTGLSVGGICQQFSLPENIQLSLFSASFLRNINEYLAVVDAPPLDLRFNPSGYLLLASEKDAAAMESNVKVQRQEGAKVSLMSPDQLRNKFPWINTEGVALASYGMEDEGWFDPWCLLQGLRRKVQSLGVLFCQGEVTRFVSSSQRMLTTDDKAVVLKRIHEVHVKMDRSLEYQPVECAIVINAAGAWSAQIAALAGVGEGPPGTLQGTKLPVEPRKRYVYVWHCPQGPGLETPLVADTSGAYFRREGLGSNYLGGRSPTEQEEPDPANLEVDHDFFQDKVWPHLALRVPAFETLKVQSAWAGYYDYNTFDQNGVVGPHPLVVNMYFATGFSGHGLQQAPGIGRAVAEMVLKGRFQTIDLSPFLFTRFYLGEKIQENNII
UniProt Q92538, whole entry, looked up: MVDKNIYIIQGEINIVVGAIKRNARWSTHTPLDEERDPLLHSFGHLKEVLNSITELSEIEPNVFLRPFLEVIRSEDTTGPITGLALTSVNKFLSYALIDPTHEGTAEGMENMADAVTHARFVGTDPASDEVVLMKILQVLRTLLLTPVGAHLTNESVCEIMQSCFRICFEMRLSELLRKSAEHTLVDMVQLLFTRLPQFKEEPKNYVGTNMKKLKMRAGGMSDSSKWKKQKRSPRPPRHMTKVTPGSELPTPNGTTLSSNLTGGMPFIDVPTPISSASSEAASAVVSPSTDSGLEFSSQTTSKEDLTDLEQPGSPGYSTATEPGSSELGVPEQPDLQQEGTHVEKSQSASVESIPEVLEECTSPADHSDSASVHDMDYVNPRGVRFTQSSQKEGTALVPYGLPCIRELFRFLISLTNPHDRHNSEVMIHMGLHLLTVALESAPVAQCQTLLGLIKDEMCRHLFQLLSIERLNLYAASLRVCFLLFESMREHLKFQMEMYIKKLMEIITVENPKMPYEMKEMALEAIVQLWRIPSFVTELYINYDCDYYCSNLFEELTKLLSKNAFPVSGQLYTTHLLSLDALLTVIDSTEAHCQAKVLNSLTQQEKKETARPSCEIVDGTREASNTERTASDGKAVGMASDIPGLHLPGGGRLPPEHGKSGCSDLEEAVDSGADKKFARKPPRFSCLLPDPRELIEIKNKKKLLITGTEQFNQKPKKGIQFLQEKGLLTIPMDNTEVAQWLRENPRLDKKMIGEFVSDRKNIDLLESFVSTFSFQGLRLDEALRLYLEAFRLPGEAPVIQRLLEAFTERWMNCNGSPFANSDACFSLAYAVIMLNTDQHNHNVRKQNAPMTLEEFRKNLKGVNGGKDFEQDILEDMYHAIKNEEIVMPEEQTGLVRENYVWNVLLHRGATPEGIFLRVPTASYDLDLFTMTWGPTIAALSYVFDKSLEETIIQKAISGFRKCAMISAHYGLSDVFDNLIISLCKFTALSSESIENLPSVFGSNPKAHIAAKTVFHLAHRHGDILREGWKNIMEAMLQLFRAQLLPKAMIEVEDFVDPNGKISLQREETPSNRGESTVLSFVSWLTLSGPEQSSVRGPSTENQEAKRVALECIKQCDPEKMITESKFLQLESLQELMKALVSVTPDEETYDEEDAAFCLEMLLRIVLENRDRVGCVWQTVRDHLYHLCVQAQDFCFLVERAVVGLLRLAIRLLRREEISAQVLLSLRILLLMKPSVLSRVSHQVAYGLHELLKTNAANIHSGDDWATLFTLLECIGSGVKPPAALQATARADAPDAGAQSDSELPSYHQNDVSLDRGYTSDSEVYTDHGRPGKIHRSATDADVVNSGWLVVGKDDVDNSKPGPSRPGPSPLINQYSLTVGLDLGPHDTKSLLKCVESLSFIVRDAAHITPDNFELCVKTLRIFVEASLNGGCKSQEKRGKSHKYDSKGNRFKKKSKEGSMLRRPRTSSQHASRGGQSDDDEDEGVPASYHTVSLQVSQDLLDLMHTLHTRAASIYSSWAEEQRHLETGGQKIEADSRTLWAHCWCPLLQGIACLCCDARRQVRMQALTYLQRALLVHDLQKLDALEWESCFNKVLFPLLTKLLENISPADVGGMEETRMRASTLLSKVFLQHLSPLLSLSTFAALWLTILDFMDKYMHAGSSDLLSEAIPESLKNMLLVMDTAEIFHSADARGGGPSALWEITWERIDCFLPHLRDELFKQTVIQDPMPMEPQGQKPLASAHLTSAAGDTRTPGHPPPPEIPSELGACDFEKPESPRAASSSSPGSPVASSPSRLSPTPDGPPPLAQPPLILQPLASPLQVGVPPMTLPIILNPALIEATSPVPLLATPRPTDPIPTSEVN
UniProt O43524: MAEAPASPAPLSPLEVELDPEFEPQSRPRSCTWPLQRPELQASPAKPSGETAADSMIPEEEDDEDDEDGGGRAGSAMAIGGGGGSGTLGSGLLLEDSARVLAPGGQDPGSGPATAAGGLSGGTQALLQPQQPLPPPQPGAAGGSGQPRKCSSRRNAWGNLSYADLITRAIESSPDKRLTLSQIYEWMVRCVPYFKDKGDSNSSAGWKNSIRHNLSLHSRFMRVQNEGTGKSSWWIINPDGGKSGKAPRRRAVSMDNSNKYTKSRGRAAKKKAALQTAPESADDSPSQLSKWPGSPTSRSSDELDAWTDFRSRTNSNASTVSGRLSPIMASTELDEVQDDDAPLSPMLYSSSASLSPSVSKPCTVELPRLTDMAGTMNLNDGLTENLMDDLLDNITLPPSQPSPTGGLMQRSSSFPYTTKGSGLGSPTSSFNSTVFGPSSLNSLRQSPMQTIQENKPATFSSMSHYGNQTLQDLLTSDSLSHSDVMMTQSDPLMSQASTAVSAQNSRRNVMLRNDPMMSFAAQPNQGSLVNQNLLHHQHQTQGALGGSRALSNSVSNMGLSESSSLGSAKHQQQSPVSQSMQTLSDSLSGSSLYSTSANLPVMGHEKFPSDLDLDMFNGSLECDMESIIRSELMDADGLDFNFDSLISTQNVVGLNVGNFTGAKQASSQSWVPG
UniProt P34059: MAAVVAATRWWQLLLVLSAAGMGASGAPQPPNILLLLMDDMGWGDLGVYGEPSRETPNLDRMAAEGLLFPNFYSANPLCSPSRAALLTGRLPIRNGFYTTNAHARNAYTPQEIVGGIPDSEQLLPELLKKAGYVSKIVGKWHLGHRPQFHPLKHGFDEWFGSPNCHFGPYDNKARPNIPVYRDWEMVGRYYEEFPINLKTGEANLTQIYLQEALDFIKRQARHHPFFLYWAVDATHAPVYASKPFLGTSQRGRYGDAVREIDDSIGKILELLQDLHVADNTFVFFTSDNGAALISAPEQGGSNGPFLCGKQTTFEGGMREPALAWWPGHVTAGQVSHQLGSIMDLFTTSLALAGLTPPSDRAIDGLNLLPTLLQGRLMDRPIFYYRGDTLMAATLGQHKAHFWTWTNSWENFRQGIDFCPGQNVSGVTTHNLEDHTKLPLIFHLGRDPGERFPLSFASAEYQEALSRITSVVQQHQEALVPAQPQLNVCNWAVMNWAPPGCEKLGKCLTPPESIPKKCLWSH
UniProt Q14376: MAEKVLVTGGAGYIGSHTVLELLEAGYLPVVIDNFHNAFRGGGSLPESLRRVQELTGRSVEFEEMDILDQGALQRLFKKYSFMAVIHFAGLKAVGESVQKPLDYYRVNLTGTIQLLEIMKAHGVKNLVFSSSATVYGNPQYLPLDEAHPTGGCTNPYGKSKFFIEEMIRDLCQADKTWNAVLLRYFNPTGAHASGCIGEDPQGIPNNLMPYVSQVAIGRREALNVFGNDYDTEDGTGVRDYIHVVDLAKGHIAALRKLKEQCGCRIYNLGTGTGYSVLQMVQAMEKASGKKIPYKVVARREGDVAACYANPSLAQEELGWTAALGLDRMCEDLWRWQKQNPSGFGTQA

[2] = compound: CC1=C(SC2=C1C(=N[C@H](C3=NN=C(N32)C)CC(=O)N)C4=CC=C(C=C4)Cl)C
Procedure, shortened: as §1

[3] = compound: CC1=C2C(=CC=C1)N=C(N(C2=O)C3=CC=CC=C3C)CN4C=NC5=C(N=CN=C54)N
Procedure, shortened: as §1

[4] = compound: c1ccc([C@@H]2C[C@H]2NC2CCNCC2)cc1
Procedure, shortened: as §1

[5] = compound: Cc1sc2c(c1C)C(c1ccc(Cl)cc1)=N[C@@H](CC(=O)OC(C)(C)C)c1nnc(C)n1-2
Procedure, shortened: as §1

Measured: log2 fold change

GEMIN8 (UniProt Q9NWZ8)
inactive: [1] -0.023 | [2] 0.01 | [3] -0.113 | [4] 0.063

G3BP1 (UniProt Q13283)
inactive: [1] 0.006 | [2] -0.007 | [3] -0.006 | [5] 0.045 | [4] -0.045

GET4 (UniProt Q7L5D6)
inactive: [1] -0.015 | [2] -0.045 | [3] 0.036 | [5] -0.008 | [4] 0.032

GANAB isoform 2 (UniProt Q14697)
inactive: [1] 0.008 | [2] 0 | [3] 0.01 | [5] 0.008 | [4] 0.018

FOXK1 (UniProt P85037)
inactive: [1] 0.022 | [2] 0.017 | [3] -0.001 | [5] 0.032 | [4] -0.009

FREM2 (UniProt Q5SZK8)
inactive: [1] 0 | [2] 0.074 | [3] 0.003 | [5] -0.133 | [4] -0.212

GFM1 (UniProt Q96RP9)
inactive: [1] -0.013 | [2] 0.004 | [3] 0.061 | [5] 0.032 | [4] 0.007

GCLM (UniProt P48507)
inactive: [1] 0.01 | [2] -0.041 | [3] 0.02 | [5] 0.008 | [4] 0.006

FUCA2 (UniProt Q9BTY2)
inactive: [1] 0.037 | [2] -0.019 | [3] -0.005 | [5] -0.047 | [4] -0.117

2 neighbouring entries from above:
GET4 (UniProt Q7L5D6)
inactive: [1] -0.015 | [2] -0.045 | [3] 0.036 | [5] -0.008 | [4] 0.032

GANAB isoform 2 (UniProt Q14697)
inactive: [1] 0.008 | [2] 0 | [3] 0.01 | [5] 0.008 | [4] 0.018

More records follow:

FOXL2 (UniProt P58012)
inactive: [1] 0.135 | [2] 0.129 | [5] 0.166

FXR2 (UniProt P51116)
inactive: [1] -0.021 | [2] -0.011 | [3] 0.032 | [5] -0.014 | [4] 0.054

GALK1 isoform 2 (UniProt P51570)
inactive: [1] 0.014 | [2] 0.027 | [3] 0.035 | [5] 0.006 | [4] 0.073

GAA (UniProt P10253)
inactive: [1] -0.001 | [2] -0.077 | [3] -0.157 | [4] -0.024

GABARAP (UniProt O95166)
inactive: [1] -0.043 | [2] 0.056 | [3] 0.2 | [5] 0.001 | [4] -0.03

GART (UniProt P22102)
inactive: [1] -0.04 | [2] 0.047 | [3] 0.011 | [5] 0.057 | [4] 0.042

FOXRED1 (UniProt Q96CU9)
inactive: [1] 0.009 | [2] 0.008 | [3] -0.005 | [5] 0.017 | [4] -0.014

GBF1 (UniProt Q92538)
inactive: [1] -0.044 | [2] 0 | [3] 0.005 | [5] 0.016 | [4] 0.011

FURIN (UniProt P09958)
inactive: [1] 0.017 | [2] 0.017 | [3] 0.046 | [5] 0.017 | [4] 0.035

FOXO3 (UniProt O43524)
inactive: [1] 0.011 | [2] 0.029 | [3] 0.029 | [5] -0.108 | [4] -0.117

G3BP2 (UniProt Q9UN86)
inactive: [1] 0.002 | [2] 0.02 | [3] -0.016 | [5] -0.021 | [4] 0.003

GALNS (UniProt P34059)
inactive: [1] 0.03 | [2] 0.018 | [3] -0.005 | [5] -0.008 | [4] -0.013

GCFC2 (UniProt P16383)
inactive: [1] 0.065 | [2] 0.094 | [3] 0.014 | [5] -0.039 | [4] 0.086

GABARAPL1 isoform 2 (UniProt Q9H0R8)
inactive: [1] 0.045 | [2] 0.064 | [3] 0.005 | [5] -0.054 | [4] 0.031

GAB2 (UniProt Q9UQC2)
inactive: [1] 0.034 | [2] -0.005 | [3] -0.063 | [5] 0.009 | [4] -0.021

GALE (UniProt Q14376)
inactive: [1] -0.004 | [2] -0.043 | [3] 0.001 | [5] 0.014 | [4] 0.023
